In US20150038677 (published 2015) one finds step yield data, which are given here for 2 substances.

The nature of the data set: general procedure: solution-phase peptide synthesis; EDC.HCl/HOBt.

“(1S,3aR,6aS)-2-((S)-2-((S)-2-cyclohexyl-2-(pyrazine-2-carboxamido)acetamido)-3,3-dimethylbutanoyl)-N-((S)-1-(cyclopropylamino)-1,2-dioxohexan-3-yl)octahydrocyclopenta[c]pyrrole-1-carboxamide (Telaprevir)” came in with a step yield (late stage modification step) of 71%. As for “(1S,3aR,6aS)-2-((S)-2-((S)-2-cyclohexyl-2-(pyrazine-2-carboxamido)acetamido)-3,3-dimethylbutanoyl)-N-((S)-1-(cyclopropylamino)-2-hydroxy-1-oxohexan-3-yl)octahydrocyclopenta[c]pyrrole-1-carboxamide”, the step yield (coupling step) worked out at 94%.
